The values that follow come from article PMC3229523, “Identification of Lactoferricin B Intracellular Targets Using an Escherichia coli Proteome Chip” (PLoS ONE, 2011).

Protein sequences, listed by entry. Tags and fused reporters are not part of them. Lines headed by an entry give the natural chain unless they say otherwise; changes in a name come on top. Residues count along the entry.
UniProt P09549: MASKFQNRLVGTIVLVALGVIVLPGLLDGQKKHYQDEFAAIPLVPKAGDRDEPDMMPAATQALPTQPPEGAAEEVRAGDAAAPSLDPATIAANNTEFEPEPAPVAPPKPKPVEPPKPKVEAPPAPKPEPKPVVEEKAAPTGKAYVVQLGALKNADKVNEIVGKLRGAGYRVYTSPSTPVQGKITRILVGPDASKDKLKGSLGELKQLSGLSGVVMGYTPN
UniProt P24627, residues 36-60: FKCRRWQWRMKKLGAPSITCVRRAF

Results are given in words; binding and its absence hold for the method and conditions named. A result given as binding can be weak or reduced; the word gives no strength.

For the assay, the target named is DedD (E. coli K-12) (UniProt P09549). The experiment in a line: peptide or protein array; E. coli proteome chip: purified His-tagged proteins printed in duplicate on Fullmoon slides, blocked with 1% BSA; 10 nM N-terminal biotinylated LfcinB with 1% BSA, room temperature, 1 h; detected with DyLight 649-labeled streptavidin, ratio to DyLight 549-labeled anti-His antibody; ProCAT normalisation, local cut-off; triplicate chips; both purified.

With “N-terminal biotinylated Lactoferricin B (from UniProt P24627 36-60) (peptide)”, the binding result is “binds”.
